# Results reported in patent publication US9018260B2, “Indanesulfamide derivatives” (Eisai R&D Management Co., Ltd., priority 2012, dated 2015).
# At least one structure is not confirmed: it was looked up by name or label, or the drawing left a doubt.
# System: amygdala kindled male Wistar Kyoto rats
# Test: Rat amygdala kindling model
# Type: in vivo
# Conditions: oral, 60 minutes after administration; FIGS. 1 to 3
# Procedure: Male Wistar Kyoto rats (Charles River Japan) were used for the experiment. For implantation of kindling electrodes, rats were anesthetized with pentobarbital (65 mg/kg i.p.) and a tripolar electrode was implanted into the right hemisphere aimed at the basolateral amygdala using the coordinates derived from the atlas of Paxinos and Watson. Electrical stimulation of the amygdala was initiated following a recovery period of one week after surgery. […]
# The threshold for induction of amygdala after discharges (ADT), i.e., epileptiform spikes on electroencephalogram (EEG), was measured for anti-seizure potency of compounds. In fully kindled rats, the ADT was determined by administering a series of stimulations beginning at […] and increasing in steps of about 25% of the previous current. […]
# In the afternoon, test compounds were dissolved in the vehicle (a 1:1:1 mixture of polyethylene glycol 200, distilled water and DMSO), then orally administered to rats. […] The ADT was determined again 60 minutes after administration of drugs. The % of pre-value (morning results) was determined for each rat. Results were expressed as mean±SEM and analyzed by Dunnett's multiple comparisons test. […]
structure (smiles),measurement,value
"NS(=O)(=O)N[C@H]1c2c(F)cc(F)cc2CC1(F)F [Example 1, N-[(1S)-2,2,5,7-tetrafluoro-2,3-dihydro-1H-inden-1-yl]sulfamide]","after-discharge threshold (ADT), % of pre-value",dose-dependent elevation of after-discharge threshold
